{
  "source": "patent US20080113956A1",
  "about": "“Substituted Porphyrins” (priority 1997, published 2008)",
  "key": {"[1]": {"assay": "SOD-like activity in vitro (xanthine/xanthine oxidase, ferricytochrome c; McCord and Fridovich)", "type": "biochemical", "conditions": "Table 2", "method": "SOD activity can be monitored in the presence and absence of EDTA using the method of McCord and Fridovich (J. Biol. Chem. 244:6049 (1969)). The efficacy of a mimetic can also be determined by measuring the effect of the mimetic on the aerobic growth of a SOD null E. coli strain versus a parental strain lacking the specific mutations. Specifically, parental E. coli (AB1157) and SOD null E. coli. (JI132) can be grown in M9 medium containing 0.2% casamino acids and 0.2% glucose at pH 7.0 and 37° C.; growth can be monitored in terms of turbidity followed at 700 nm.\nThe superoxide dismutase activity of the mimetics of the invention depends on a number of factors, including thermodynamic factors (eg the metal-centered redox-potential see FIG. 1)), and kinetic factors (eg electrostatic facilitation).\nSuperoxide dismuting activity. The SOD-like activities were measured using the xanthine/xanthine oxidase system as a source of O2^− and ferricytochrome c as its indicating scavenger (McCord et al, J. Biol. Chem. 244:6049 (1969)). O2— was produced at the rate of 1.2 μM per minute and reduction of ferricytochrome c was followed at 550 nm. Assays were conducted in presence of 0.1 mM EDTA in 0.05 M phosphate buffer (pH 7.8). […]\nSuperoxide dismuting activities. SOD-like activities were measured as described previously, based on competition with cytochrome c (McCord et al, J. Biol. Chem. 244:6049 (1969)). […]"}, "DNA": {"tested_on": "DNA", "assay": "SOD activity in vitro in the presence of DNA (DNA interaction)", "type": "biochemical", "excerpt": "The “ortho effect” also decreases the toxicity. It is well known that porphyrins, and particularly cationic porphyrins, interact with DNA and can act as DNA cleavers. This fact can be an issue in the use of metallo-porphyrins as anti-tumor drugs. The present mimetics avoid this interaction.\nIn order to maximize the decrease in toxicity due to interaction with DNA, two derivatives of the ortho compound have been prepared which carry four ethyl or four butyl groups (“4” and “5”, respectively)."}, "rat brain homogenates": {"tested_on": "rat brain homogenates", "assay": "Iron/ascorbate mediated lipid peroxidation of rat brain homogenates (TBARS)", "type": "biochemical", "conditions": "rat brain homogenate, 30 minutes incubation with iron and ascorbate", "method": "Frozen adult Sprague-Dawley rat brains (Pel-Freez, Rogers, Ark.) were homogenized with a polytron (Turrax T25, Germany) in 5 volumes of ice cold 50 mM potassium phosphate at pH 7.4. Homogenate protein concentration was determined with the Coomassie Plus protein assay (Pierce, Rockford, Ill.) using bovine serum albumin as a standard. The homogenate volume was adjusted with buffer to give a final protein concentration of 10 mg/ml and frozen as aliquots at […].\nRat brain homogenates (2 mg protein) were incubated with varying concentrations of antioxidant at 37° C. for 15 minutes. […]\nThe concentration of thiobarbituric acid reactive species (TBARS) in rat brain homogenates was used as a index of lipid peroxidation (Bernhem et al, J. Biol. Chem. 174:257 (1948); Witz et al, J. Free Rad. Biol. Med. 2:33 (1986); Kikugawa et al, Anal. Biochem. 202:249 (1992); Jentzsch et al, Free Rad. Biol. Med. 20P251 (1996)). […] The samples were then centrifuged at 12,000×g for 3 minutes, 150 μl aliquots of the n-butanol phase were placed in each well of a 96-well plate and read at 535 nm in a Thermomax platereader (Molecular Devices, Sunnyvale, Calif.) at 25° C. […]"}, "[2]": {"conditions": "literature value; cited from earlier work"}},
  "note": "At least one compound was matched to its structure with a doubt left.",
  "data": [
    {"smiles": "CCCC[n+]1ccccc1-c1c2nc(c(-c3cccc[n+]3CCCC)c3ccc([n-]3)c(-c3cccc[n+]3CCCC)c3nc(c(-c4cccc[n+]4CCCC)c4ccc1[n-]4)C=C3)C=C2.[Mn+3]", "note": "[compound 5, manganic meso-tetrakis-(N-butylpyridinium-2-yl)porphyrin]", "values": [
      {"measurement": "kcat rate constant for the superoxide dismutation reaction", "setting": "[1]", "result": 3.0, "unit": "I0^7 M^−1s^−1"},
      {"measurement": "DNA-IC50 concentration of DNA for 50% inhibition of the superoxide dismutation reaction", "setting": "DNA", "result": "6.7 10^−1"}
    ]},
    {"smiles": "C[C@@H]1O[C@@H](OC[C@H]2O[C@@H](Oc3c(-c4ccc(O)c(O)c4)oc4cc(O)cc(O)c4c3=O)[C@H](O)[C@@H](O)[C@@H]2O)[C@H](O)[C@H](O)[C@H]1O", "note": "[Rutin]", "values": [
      {"measurement": "IC50", "setting": "rat brain homogenates", "result": 113, "unit": "µM"},
      {"measurement": "IC50", "setting": "rat brain homogenates; listed as rutin", "result": 112, "unit": "µM"}
    ]},
    {"smiles": "C[n+]1ccc(-c2c3nc(c(-c4cc[n+](C)cc4)c4[n-]c(c(Br)c4Br)c(-c4cc[n+](C)cc4)c4nc(c(-c5cc[n+](C)cc5)c5[n-]c2c(Br)c5Br)C(Br)=C4Br)C(Br)=C3Br)cc1.[Mn+3]", "note": "[MnOBTM-4-PyP, Manganese β-octabromo-meso-tetrakis-(N-methylpyridinium-4-yl)porphyrin]", "values": [
      {"measurement": "stability constant of the metal-ligand complex", "setting": "[2]", "result": "10^8.08"}
    ]}
  ]
}
